According to publication PMC10892649:
Where two headings read alike, the source gives them in different places. Results are given in words; binding and its absence hold for the method and conditions named. For part of these data: Binding seen in cells or lysates may run through a third protein. Some binding calls cover weakened binding; strength is not graded here. Sequences can lack the tags named with a protein. Values belong to the molecule of their own block, whether it stands above or below them.

The chains behind the UniProt entries cited, without tags or fusion partners.
UniProt Q6Q9H6: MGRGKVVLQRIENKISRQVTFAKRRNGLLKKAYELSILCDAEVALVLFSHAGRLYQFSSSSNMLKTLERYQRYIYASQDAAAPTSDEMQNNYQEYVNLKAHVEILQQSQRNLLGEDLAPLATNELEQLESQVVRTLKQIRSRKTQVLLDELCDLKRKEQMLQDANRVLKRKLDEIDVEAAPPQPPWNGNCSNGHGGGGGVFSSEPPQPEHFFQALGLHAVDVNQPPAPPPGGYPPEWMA
UniProt Q10PZ9: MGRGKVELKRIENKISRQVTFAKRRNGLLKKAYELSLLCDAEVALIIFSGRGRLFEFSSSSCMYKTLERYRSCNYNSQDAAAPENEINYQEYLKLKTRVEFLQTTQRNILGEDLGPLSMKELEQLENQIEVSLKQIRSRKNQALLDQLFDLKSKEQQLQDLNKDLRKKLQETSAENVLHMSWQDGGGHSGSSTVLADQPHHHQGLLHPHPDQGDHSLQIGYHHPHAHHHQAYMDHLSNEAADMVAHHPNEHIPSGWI

Assays:
[1] = biological target: T1, G1 (LONG STERILE LEMMA1), full length, yeast two-hybrid fusion (rice (Oryza sativa)) (UniProt Q8GVZ6); test: two-hybrid; yeast AH109; pGBKT7 (Gal4 DNA-binding domain) and pGADT7 fusions; empty pGBKT7 and pGADT7 as negative controls
T1 sequence: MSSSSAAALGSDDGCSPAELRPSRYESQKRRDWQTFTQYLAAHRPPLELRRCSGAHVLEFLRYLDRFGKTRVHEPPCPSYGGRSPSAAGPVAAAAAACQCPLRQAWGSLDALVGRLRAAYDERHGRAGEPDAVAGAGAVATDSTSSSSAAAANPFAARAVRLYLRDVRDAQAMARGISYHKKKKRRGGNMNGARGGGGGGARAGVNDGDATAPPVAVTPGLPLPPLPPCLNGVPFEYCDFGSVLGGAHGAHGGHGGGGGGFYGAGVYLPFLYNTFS

[2] = biological target: T2, G1^170–276, yeast two-hybrid fusion (rice (Oryza sativa)) (UniProt Q8GVZ6); test: as above
T2 sequence: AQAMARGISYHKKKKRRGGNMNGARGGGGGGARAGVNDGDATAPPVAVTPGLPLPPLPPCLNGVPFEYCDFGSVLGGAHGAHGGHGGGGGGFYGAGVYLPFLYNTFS

[3] = biological target: T1, G1 (LONG STERILE LEMMA1), full length, yeast two-hybrid fusion (rice (Oryza sativa)); test: as above; remark: listed apart in the source
[4] = biological target: OsMADS34, yeast two-hybrid fusion (rice (Oryza sativa)) (UniProt Q6Q9H6); test: as above
[5] = biological target: G1, BiFC fusion (cYFP-G1 and nYFP-G1) (rice (Oryza sativa)) (UniProt Q8GVZ6); test: split reporter; BiFC with nYFP and cYFP fusions expressed in N. benthamiana leaves; YFP fluorescence by confocal microscopy
[6] = biological target: OsMADS1, BiFC fusion (cYFP-OsMADS1 and nYFP-OsMADS1) (rice (Oryza sativa)) (UniProt Q10PZ9); test: as above
[7] = biological target: T3, GST-G1 (rice (Oryza sativa)) (UniProt Q8GVZ6); test: pull-down; GST pull-down in vitro; GST fusion as bait, His-G1 as prey; proteins expressed in E. coli BL21 Rosetta; immunoblot with anti-GST or anti-His
T3 sequence: T1 sequence

[8] = biological target: GST-OsMADS1 (rice (Oryza sativa)) (UniProt Q10PZ9); test: as above

Molecule: OsMADS1, yeast two-hybrid fusion (from UniProt Q10PZ9 1-257)
binding [1]: binds
binding [2]: binds

B2: G1, BiFC fusion (cYFP-G1 and nYFP-G1) (protein, UniProt Q8GVZ6 1-276)
chain: T1 sequence
binding [5]: binds
binding [6]: binds

B4: G1^170–276, yeast two-hybrid fusion (domain or fragment, UniProt Q8GVZ6 170-276)
chain: T2 sequence
binding [4]: no binding

Other lines, results leading:

binding [3]: binds
binding [4]: no binding
B1: G1 (LONG STERILE LEMMA1), full length, yeast two-hybrid fusion (protein, UniProt Q8GVZ6 1-276)
chain: T1 sequence

binding [7]: binds
binding [8]: binds
B3: His-G1 (protein, UniProt Q8GVZ6 1-276)
chain: T1 sequence
